Measurements reported in PubChem BioAssay AID1259254 (NCATS, 2017).
Shown is an unselected part of about 59,000 reagents tested. About 1,550 of all reagents (2.6%) were called active. 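G2 share is only a proxy for re-replication; each gene was hit by three separate siRNAs, and active genes were retested.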 Reagents against one gene are numbered here. Not all columns of the deposit are shown. Not given: the amount of reagent.

Screen: 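Finding genes that stop cells copying their DNA twice in one cycle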 (primary screen)
System: human HCT116 colorectal cancer cells
Reagents: single siRNA against human genes
Duration: 3 days
Measurement: 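Nuclei stained with Hoechst and imaged; cell-cycle phase assigned by DNA content; G2 share scaled per plate, non-targeting siRNA 0%, GMNN siRNA 100%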
Direction: G2 robust z-score: higher = more G2 cells, more excess DNA replication
Call rule: 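Active siRNAs have a G2 robust z of 5 or more median absolute deviations over the median, which in these data means about 38% or higher of GMNN control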

After knock-down of ZNF622 (zinc finger protein 622) #1, the record shows G2 robust z-score 1.87; inactive. Knock-down of ZNF622 (zinc finger protein 622) #2 resulted in: G2 robust z-score 3.19; inactive. Silencing of ZNF622 (zinc finger protein 622) #3 resulted in: G2 robust z-score 0.813; inactive. Against MTHFSD (methenyltetrahydrofolate synthetase domain containing) #1 the deposit lists G2 robust z-score 6.09; active. After knock-down of MTHFSD (methenyltetrahydrofolate synthetase domain containing) #2, the screen gave G2 robust z-score 0.33; inactive. After knock-down of MTHFSD (methenyltetrahydrofolate synthetase domain containing) #3, the record shows G2 robust z-score -0.912; inactive.

Knock-down of VPS26A (VPS26 retromer complex component A) #1 gave: G2 robust z-score -0.523; inactive. After knock-down of VPS26A (VPS26 retromer complex component A) #2, the record shows G2 robust z-score -0.0432; inactive. VPS26A (VPS26 retromer complex component A) #3 showed G2 robust z-score -0.254; inactive. After knock-down of AQP5 (aquaporin 5) #1, the screen gave G2 robust z-score 1.19; inactive. Depletion of AQP5 (aquaporin 5) #2 came out at: G2 robust z-score -0.964; inactive. AQP5 (aquaporin 5) #3 scored G2 robust z-score 3.47; inactive.

For CMA1 (chymase 1) #1 the deposit lists G2 robust z-score 0.38; inactive. Against CMA1 (chymase 1) #2, the values are G2 robust z-score 1.37; inactive. For CMA1 (chymase 1) #3 the deposit lists G2 robust z-score -0.319; inactive. Silencing of TRANK1 (tetratricopeptide repeat and ankyrin repeat containing 1) #1 gave: G2 robust z-score 0.345; inactive. TRANK1 (tetratricopeptide repeat and ankyrin repeat containing 1) #2 showed G2 robust z-score -0.09; inactive. Against TRANK1 (tetratricopeptide repeat and ankyrin repeat containing 1) #3, the entry reads G2 robust z-score -0.109; inactive.

HADHB #1 scored G2 robust z-score 0.0386; inactive. Against HADHB #2, the values are G2 robust z-score 0.816; inactive. Silencing of HADHB #3 gave: G2 robust z-score -1.24; inactive. Knock-down of ADGRG4 (adhesion G protein-coupled receptor G4) #1 came out at: G2 robust z-score 0.828; inactive. For ADGRG4 (adhesion G protein-coupled receptor G4) #2, the values are G2 robust z-score 0.538; inactive. With knock-down of ADGRG4 (adhesion G protein-coupled receptor G4) #3, the screen gave G2 robust z-score 0.533; inactive.

Records listed above with an active call, once more:
MTHFSD (methenyltetrahydrofolate synthetase domain containing) #1 — G2 robust z-score: 6.09; outcome: active
